# ± gives the standard deviation of the averaged measurements. The list shows a part of the results.
# Amino acid sequences for entries named in this document (tags omitted). A change or cut given only in a name is not applied to a line headed by its entry.
# UniProt Q9HC52: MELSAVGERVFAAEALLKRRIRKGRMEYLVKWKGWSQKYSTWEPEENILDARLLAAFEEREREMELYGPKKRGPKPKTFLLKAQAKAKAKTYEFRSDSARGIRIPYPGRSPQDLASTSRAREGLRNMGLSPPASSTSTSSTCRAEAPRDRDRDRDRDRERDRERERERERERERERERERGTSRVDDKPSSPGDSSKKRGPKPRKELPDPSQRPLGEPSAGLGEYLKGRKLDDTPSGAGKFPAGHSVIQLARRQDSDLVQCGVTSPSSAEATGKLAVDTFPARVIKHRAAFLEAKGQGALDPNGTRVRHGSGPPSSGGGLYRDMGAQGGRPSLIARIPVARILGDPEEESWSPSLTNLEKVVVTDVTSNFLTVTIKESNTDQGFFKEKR
# UniProt Q9NR50: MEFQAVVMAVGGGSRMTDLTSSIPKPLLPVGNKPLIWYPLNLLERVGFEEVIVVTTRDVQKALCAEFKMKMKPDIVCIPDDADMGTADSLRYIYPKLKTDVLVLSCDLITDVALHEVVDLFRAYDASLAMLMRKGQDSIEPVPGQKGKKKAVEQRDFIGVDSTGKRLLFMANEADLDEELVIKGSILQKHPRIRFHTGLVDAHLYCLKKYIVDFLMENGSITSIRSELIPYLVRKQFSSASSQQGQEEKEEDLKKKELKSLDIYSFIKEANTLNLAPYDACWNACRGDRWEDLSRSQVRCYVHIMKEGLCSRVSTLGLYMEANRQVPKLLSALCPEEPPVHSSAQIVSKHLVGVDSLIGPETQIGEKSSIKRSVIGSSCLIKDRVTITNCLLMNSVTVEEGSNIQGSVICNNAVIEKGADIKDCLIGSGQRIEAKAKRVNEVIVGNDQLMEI
# UniProt Q9NUB1: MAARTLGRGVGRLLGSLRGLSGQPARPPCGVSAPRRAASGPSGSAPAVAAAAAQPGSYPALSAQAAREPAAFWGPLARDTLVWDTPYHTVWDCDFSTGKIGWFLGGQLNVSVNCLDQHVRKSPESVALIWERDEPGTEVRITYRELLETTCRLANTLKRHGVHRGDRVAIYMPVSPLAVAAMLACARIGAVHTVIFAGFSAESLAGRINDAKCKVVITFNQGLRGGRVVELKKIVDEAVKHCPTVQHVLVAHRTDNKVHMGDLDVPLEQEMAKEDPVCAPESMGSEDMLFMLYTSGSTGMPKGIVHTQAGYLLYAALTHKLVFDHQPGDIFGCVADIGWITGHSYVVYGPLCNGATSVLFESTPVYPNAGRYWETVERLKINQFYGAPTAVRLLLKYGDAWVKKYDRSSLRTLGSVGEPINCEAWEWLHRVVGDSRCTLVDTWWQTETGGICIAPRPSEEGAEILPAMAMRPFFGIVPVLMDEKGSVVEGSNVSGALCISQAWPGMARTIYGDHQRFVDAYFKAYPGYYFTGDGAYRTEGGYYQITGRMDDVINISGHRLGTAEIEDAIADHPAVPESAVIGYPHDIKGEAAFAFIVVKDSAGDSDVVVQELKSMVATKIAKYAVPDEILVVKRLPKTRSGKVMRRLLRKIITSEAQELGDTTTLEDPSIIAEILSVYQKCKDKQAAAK
# UniProt Q9H267: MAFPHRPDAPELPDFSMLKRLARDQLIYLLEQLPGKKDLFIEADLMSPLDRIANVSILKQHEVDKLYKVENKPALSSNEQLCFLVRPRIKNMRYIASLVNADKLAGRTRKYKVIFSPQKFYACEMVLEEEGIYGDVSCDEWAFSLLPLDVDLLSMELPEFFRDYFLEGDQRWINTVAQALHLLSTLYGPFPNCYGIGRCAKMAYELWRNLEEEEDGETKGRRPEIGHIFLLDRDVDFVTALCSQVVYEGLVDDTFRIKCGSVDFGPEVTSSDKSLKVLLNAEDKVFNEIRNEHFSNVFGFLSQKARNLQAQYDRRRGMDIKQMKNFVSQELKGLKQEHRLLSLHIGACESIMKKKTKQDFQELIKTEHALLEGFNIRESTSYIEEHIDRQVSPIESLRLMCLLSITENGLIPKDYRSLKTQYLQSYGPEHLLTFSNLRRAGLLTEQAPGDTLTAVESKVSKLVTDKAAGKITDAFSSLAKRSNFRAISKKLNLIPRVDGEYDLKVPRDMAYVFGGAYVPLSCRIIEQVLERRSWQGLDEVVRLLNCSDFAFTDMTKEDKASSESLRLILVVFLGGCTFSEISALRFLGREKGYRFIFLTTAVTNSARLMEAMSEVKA
# UniProt Q9BZX2: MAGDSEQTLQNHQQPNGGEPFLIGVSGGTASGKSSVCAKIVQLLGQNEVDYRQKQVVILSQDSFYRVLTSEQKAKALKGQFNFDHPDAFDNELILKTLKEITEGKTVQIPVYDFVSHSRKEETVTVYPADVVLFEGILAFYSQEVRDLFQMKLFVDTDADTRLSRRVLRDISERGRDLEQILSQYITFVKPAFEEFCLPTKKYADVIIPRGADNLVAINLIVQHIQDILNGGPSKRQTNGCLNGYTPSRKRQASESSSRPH
# UniProt Q9H6D7: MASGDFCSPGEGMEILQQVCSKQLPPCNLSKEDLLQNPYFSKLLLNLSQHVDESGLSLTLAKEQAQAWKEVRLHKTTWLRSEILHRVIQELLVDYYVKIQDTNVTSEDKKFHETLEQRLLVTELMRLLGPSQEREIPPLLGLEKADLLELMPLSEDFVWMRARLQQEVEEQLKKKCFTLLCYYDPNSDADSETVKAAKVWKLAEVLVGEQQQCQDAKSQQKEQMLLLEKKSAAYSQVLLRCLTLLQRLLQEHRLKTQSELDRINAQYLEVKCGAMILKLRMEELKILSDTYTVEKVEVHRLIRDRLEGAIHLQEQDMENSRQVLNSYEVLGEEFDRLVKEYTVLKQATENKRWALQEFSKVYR
# UniProt Q9NS69: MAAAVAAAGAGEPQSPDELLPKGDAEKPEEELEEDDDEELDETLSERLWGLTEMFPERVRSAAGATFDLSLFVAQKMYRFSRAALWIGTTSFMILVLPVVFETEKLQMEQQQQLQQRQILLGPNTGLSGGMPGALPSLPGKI
# UniProt Q9H7F0: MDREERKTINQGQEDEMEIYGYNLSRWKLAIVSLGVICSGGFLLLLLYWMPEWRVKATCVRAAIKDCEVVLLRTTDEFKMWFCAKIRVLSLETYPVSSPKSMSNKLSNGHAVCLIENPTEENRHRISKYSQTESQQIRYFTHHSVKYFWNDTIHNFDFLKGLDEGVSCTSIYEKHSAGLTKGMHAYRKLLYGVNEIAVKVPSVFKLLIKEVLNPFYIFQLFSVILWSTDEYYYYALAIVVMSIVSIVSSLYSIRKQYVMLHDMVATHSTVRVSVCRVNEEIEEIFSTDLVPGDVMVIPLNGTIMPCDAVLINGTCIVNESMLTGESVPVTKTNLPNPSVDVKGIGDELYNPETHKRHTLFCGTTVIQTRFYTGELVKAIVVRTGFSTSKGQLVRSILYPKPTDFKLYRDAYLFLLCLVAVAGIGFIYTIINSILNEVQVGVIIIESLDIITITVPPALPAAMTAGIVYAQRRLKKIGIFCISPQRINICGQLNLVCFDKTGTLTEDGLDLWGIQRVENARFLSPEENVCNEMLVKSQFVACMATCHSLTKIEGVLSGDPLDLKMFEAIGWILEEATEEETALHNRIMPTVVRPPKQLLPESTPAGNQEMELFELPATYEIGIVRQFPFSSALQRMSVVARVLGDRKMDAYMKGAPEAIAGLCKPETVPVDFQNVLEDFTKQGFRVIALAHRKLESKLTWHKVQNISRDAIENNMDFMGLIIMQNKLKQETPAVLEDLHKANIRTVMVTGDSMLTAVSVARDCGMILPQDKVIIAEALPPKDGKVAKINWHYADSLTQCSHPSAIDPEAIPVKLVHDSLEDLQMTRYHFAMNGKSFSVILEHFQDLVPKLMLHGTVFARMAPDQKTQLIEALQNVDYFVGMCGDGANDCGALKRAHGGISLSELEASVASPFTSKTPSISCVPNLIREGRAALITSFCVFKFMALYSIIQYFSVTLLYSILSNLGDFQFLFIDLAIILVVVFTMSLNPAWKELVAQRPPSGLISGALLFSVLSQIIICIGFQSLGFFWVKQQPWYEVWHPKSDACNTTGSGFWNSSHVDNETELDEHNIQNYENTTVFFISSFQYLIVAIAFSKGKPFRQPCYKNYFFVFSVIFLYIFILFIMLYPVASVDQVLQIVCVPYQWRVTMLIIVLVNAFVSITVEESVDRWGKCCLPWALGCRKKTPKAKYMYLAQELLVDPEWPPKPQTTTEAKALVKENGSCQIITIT
# UniProt Q9HB71, whole entry: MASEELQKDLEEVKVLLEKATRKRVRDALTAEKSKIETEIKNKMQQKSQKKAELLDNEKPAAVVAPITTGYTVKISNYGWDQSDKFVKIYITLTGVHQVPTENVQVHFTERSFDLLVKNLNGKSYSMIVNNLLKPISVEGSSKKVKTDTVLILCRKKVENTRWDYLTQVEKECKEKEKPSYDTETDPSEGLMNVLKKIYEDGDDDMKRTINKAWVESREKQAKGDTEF
# UniProt Q9HAV7: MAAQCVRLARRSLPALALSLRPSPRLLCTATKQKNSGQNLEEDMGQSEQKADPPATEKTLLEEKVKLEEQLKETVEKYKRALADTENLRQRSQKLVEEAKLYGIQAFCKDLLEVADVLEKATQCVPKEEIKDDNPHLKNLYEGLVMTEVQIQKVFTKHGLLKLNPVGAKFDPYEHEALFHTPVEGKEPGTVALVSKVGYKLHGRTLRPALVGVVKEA
# UniProt Q9NS73: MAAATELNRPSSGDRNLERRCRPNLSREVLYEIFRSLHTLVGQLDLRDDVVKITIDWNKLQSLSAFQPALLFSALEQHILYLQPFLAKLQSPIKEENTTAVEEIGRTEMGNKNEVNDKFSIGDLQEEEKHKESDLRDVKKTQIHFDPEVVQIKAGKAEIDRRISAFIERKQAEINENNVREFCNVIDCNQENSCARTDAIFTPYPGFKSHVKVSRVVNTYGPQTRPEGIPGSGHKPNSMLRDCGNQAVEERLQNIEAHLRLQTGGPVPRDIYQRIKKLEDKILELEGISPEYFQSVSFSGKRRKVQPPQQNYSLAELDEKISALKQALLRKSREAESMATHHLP
# UniProt Q9H1D9: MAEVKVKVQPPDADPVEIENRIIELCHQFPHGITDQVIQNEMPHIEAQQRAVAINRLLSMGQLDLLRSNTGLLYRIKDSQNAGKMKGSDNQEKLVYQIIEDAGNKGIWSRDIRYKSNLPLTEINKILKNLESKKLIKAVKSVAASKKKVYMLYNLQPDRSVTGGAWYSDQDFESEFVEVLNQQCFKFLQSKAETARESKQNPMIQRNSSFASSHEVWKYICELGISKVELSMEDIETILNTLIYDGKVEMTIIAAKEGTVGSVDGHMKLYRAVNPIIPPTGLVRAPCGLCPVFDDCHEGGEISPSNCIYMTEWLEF
# UniProt Q9H977: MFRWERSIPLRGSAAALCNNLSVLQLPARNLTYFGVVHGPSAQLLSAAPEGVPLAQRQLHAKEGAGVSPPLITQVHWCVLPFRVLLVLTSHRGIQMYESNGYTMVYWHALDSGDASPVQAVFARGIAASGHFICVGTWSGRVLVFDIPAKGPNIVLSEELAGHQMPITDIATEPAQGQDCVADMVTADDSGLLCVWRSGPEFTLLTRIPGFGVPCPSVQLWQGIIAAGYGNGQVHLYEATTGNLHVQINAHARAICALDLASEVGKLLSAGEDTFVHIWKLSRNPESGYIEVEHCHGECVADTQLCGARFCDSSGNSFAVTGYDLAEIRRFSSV
# UniProt Q9GZP4: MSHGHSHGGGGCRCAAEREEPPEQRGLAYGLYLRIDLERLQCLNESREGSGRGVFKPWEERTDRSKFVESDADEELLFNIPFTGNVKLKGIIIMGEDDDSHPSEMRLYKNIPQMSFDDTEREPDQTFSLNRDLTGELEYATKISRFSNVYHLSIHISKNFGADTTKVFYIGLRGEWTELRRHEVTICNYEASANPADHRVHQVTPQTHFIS
# UniProt Q9H9A5, whole entry: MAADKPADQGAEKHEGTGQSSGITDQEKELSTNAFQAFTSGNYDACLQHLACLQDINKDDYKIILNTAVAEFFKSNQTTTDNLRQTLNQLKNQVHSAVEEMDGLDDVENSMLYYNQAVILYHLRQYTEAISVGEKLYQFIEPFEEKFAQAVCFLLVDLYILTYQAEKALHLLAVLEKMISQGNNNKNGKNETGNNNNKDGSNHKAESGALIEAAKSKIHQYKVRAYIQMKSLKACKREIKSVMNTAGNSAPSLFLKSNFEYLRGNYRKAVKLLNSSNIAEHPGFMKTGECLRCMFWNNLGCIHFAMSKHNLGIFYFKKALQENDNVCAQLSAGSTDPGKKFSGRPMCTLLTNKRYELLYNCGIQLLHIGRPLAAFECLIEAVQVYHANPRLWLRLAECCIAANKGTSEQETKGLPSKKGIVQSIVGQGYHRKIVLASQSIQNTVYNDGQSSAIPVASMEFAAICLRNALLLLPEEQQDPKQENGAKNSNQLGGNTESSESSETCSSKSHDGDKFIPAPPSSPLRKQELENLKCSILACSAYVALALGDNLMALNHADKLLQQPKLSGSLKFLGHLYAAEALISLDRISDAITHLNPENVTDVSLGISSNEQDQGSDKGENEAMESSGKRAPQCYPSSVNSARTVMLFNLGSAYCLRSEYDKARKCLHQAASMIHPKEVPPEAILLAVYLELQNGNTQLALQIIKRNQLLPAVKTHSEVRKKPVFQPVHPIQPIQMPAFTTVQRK
# Compound: Nc1nc2c(ncn2[C@@H]2O[C@H](COP(=O)(O)OP(=O)(O)OP(=O)(O)O)[C@@H](O)[C@H]2O)c(=O)[nH]1 [guanosine triphosphate]
# Experiment: NP40-soluble protein abundance relative to vehicle (solubility fold change) (ratio); higher = more soluble protein in presence of GTP
# Outline: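 Each value is a fold change relative to the detergent-processed vehicle, calculated per replicate from vsn-normalised intensities. Jurkat crude lysate received eight concentrations (0.1 to 10 mM) for 10 min at room temperature and 3 min at 37 °C, then was solubilised in 0.8% NP40 with benzonase (60 min, 4 °C). The ultracentrifuged supernatant was TMT-labelled and run by LC-MS/MS in three independent experiments.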
Target,NP40-soluble protein abundance (concentration: 0.1mM),NP40-soluble protein abundance (concentration: 0.5mM),NP40-soluble protein abundance (concentration: 1mM),NP40-soluble protein abundance (concentration: 2mM),NP40-soluble protein abundance (concentration: 4mM),NP40-soluble protein abundance (concentration: 6mM),NP40-soluble protein abundance (concentration: 8mM),NP40-soluble protein abundance (concentration: 10mM)
CBX8 (UniProt Q9HC52),1.01 ± 0.04,1.04 ± 0.048,1.13 ± 0.013,1.24 ± 0.14,1.42 ± 0.15,1.61 ± 0.15,1.74 ± 0.17,1.86 ± 0.23
UniProt Q9H9T3-2,1.05 ± 0.065,1.08 ± 0.06,1.07 ± 0.094,1.11 ± 0.13,1.09 ± 0.12,1.12 ± 0.12,1.08 ± 0.1,1.02 ± 0.1
EIF2B3 (UniProt Q9NR50),1.04 ± 0.062,1.01 ± 0.078,0.984 ± 0.062,1.03 ± 0.1,1.07 ± 0.079,1.03 ± 0.1,1.03 ± 0.06,1.02 ± 0.081
UniProt Q9NUB1 and related entries,1.05 ± 0.046,1.03 ± 0.046,0.94 ± 0.04,0.922 ± 0.061,0.937 ± 0.052,0.908 ± 0.058,0.897 ± 0.084,0.86 ± 0.092
VPS33B (UniProt Q9H267),1.04 ± 0.031,1.09 ± 0.072,0.959 ± 0.0098,0.961 ± 0.058,0.964 ± 0.042,0.923 ± 0.048,0.907 ± 0.019,0.868 ± 0.033
POLE3 (UniProt Q9NRF9),0.976 ± 0.053,0.933 ± 0.034,1.05 ± 0.093,1.02 ± 0.043,0.982 ± 0.041,1.02 ± 0.056,1.03 ± 0.078,1.05 ± 0.056
UCK2 (UniProt Q9BZX2),0.947 ± 0.053,0.929 ± 0.038,0.947 ± 0.044,0.905 ± 0.057,0.891 ± 0.05,0.92 ± 0.03,0.888 ± 0.03,0.885 ± 0.063
UniProt Q9H6D7,0.98 ± 0.064,0.93 ± 0.035,1.06 ± 0.068,1.07 ± 0.03,1.08 ± 0.094,1.09 ± 0.063,1.01 ± 0.16,1.11 ± 0.13
UniProt Q9HD45 and related entries,1.01 ± 0.05,1.05 ± 0.092,0.924 ± 0.022,0.961 ± 0.051,0.941 ± 0.013,0.915 ± 0.03,0.906 ± 0.053,0.903 ± 0.069
UniProt Q9H7E2-3|Q9H7E2 and related entries,1.07 ± 0.085,1 ± 0.082,1.07 ± 0.047,1.07 ± 0.05,1.05 ± 0.023,1.07 ± 0.028,1.14 ± 0.045,1.19 ± 0.023
AVEN (UniProt Q9NQS1),0.799 ± 0.025,0.719 ± 0.076,0.905 ± 0.07,0.868 ± 0.096,0.96 ± 0.13,0.967 ± 0.08,0.973 ± 0.12,1.12 ± 0.021
ZHX3 (UniProt Q9H4I2),0.975 ± 0.062,0.94 ± 0.043,0.994 ± 0.1,1.01 ± 0.099,0.967 ± 0.039,1.01 ± 0.079,1.05 ± 0.07,1.05 ± 0.11
WDR61 (UniProt Q9GZS3),1.01 ± 0.031,1.04 ± 0.073,0.973 ± 0.059,0.992 ± 0.084,0.987 ± 0.068,1 ± 0.071,0.965 ± 0.052,0.904 ± 0.032
UniProt Q9HAF1 and related entries,1.19 ± 0.27,1.12 ± 0.19,1.29 ± 0.18,1.27 ± 0.11,1.24 ± 0.085,1.18 ± 0.057,1.33 ± 0.16,1.38 ± 0.12
TOMM22 (UniProt Q9NS69),0.989 ± 0.16,0.925 ± 0.072,1.04 ± 0.1,1.08 ± 0.11,1.01 ± 0.16,0.986 ± 0.031,0.937 ± 0.05,1.06 ± 0.12
UniProt Q9NRL2 and related entries,1.02 ± 0.032,1.06 ± 0.056,1.06 ± 0.037,1.09 ± 0.054,1.13 ± 0.034,1.15 ± 0.036,1.19 ± 0.056,1.16 ± 0.039
UniProt Q9H7F0 and related entries,1.19 ± 0.081,1.11 ± 0.073,1.13 ± 0.042,1.07 ± 0.07,1.069 ± 0.0085,0.984 ± 0.078,1.14 ± 0.072,1.01 ± 0.12
UniProt Q9NP87,1.26 ± 0.16,1.18 ± 0.17,1.1 ± 0.026,1.12 ± 0.075,1.18 ± 0.074,1.04 ± 0.051,1.16 ± 0.031,1.02 ± 0.046
CACYBP (UniProt Q9HB71),0.92 ± 0.077,0.941 ± 0.055,0.926 ± 0.088,0.861 ± 0.095,0.842 ± 0.11,0.878 ± 0.095,0.888 ± 0.08,0.855 ± 0.07
UniProt Q9H8K7,1.09 ± 0.16,1.03 ± 0.14,0.976 ± 0.029,0.956 ± 0.1,1.08 ± 0.11,0.961 ± 0.13,1.08 ± 0.049,1.01 ± 0.038
ABCB10 (UniProt Q9NRK6),1.06 ± 0.039,1.01 ± 0.054,0.983 ± 0.027,0.991 ± 0.033,0.998 ± 0.046,0.945 ± 0.053,0.934 ± 0.024,0.91 ± 0.041
GRPEL1 (UniProt Q9HAV7),0.9614 ± 0.008,0.932 ± 0.03,1.01 ± 0.046,0.941 ± 0.015,0.935 ± 0.054,0.96 ± 0.049,1.02 ± 0.056,1.04 ± 0.016
UniProt Q9HD33 and related entries,1.01 ± 0.017,1.16 ± 0.087,1.34 ± 0.23,1.55 ± 0.39,1.7 ± 0.52,1.86 ± 0.49,2.03 ± 0.59,2.05 ± 0.64
UniProt Q9NS73 and related entries,1.03 ± 0.076,1.03 ± 0.045,1.16 ± 0.086,1.2 ± 0.16,1.31 ± 0.22,1.19 ± 0.14,1.3 ± 0.19,1.21 ± 0.13
ESF1 (UniProt Q9H501),0.981 ± 0.085,0.968 ± 0.045,1.01 ± 0.05,0.987 ± 0.071,1.01 ± 0.081,1.02 ± 0.065,1.06 ± 0.079,1.07 ± 0.069
POLR3F (UniProt Q9H1D9),1.14 ± 0.14,1.14 ± 0.11,1.13 ± 0.12,1.14 ± 0.098,1.111 ± 0.0077,1.18 ± 0.15,1.14 ± 0.1,1.09 ± 0.079
WDR54 (UniProt Q9H977),1.03 ± 0.098,1.07 ± 0.12,0.9175 ± 0.0071,0.982 ± 0.14,1.03 ± 0.14,0.95 ± 0.14,0.977 ± 0.1,0.925 ± 0.086
UniProt Q9GZP4,1.05 ± 0.015,1.03 ± 0.048,0.943 ± 0.071,0.944 ± 0.089,0.899 ± 0.08,0.911 ± 0.11,0.872 ± 0.06,0.848 ± 0.09
UniProt Q9H0W8,0.962 ± 0.0098,1.03 ± 0.07,0.992 ± 0.073,1.07 ± 0.058,1.009 ± 0.0049,1.01 ± 0.084,0.986 ± 0.032,0.963 ± 0.053
UniProt Q9H9A5 and related entries,1.03 ± 0.051,1.05 ± 0.056,1.08 ± 0.029,1.13 ± 0.073,1.25 ± 0.14,1.23 ± 0.17,1.3 ± 0.2,1.31 ± 0.17

# In a second layout: entries from further up
Target	NP40-soluble protein abundance (concentration: 0.1mM)	NP40-soluble protein abundance (concentration: 0.5mM)	NP40-soluble protein abundance (concentration: 1mM)	NP40-soluble protein abundance (concentration: 2mM)	NP40-soluble protein abundance (concentration: 4mM)	NP40-soluble protein abundance (concentration: 6mM)	NP40-soluble protein abundance (concentration: 8mM)	NP40-soluble protein abundance (concentration: 10mM)
VPS33B (UniProt Q9H267)	1.04 ± 0.031	1.09 ± 0.072	0.959 ± 0.0098	0.961 ± 0.058	0.964 ± 0.042	0.923 ± 0.048	0.907 ± 0.019	0.868 ± 0.033
POLE3 (UniProt Q9NRF9)	0.976 ± 0.053	0.933 ± 0.034	1.05 ± 0.093	1.02 ± 0.043	0.982 ± 0.041	1.02 ± 0.056	1.03 ± 0.078	1.05 ± 0.056
UCK2 (UniProt Q9BZX2)	0.947 ± 0.053	0.929 ± 0.038	0.947 ± 0.044	0.905 ± 0.057	0.891 ± 0.05	0.92 ± 0.03	0.888 ± 0.03	0.885 ± 0.063
UniProt Q9H6D7	0.98 ± 0.064	0.93 ± 0.035	1.06 ± 0.068	1.07 ± 0.03	1.08 ± 0.094	1.09 ± 0.063	1.01 ± 0.16	1.11 ± 0.13
UniProt Q9HD45 and related entries	1.01 ± 0.05	1.05 ± 0.092	0.924 ± 0.022	0.961 ± 0.051	0.941 ± 0.013	0.915 ± 0.03	0.906 ± 0.053	0.903 ± 0.069
UniProt Q9H7E2-3|Q9H7E2 and related entries	1.07 ± 0.085	1 ± 0.082	1.07 ± 0.047	1.07 ± 0.05	1.05 ± 0.023	1.07 ± 0.028	1.14 ± 0.045	1.19 ± 0.023
